Assay results: paper PMC9374436
Read-outs that look alike come from different tables or passages of the source. These are yes or no findings as the source states them, for the method shown. Binding seen in cells or lysates may run through a third protein. These calls come from enrichment with a bait or labelling near it, and not all partners need be listed. Tags and fused reporters may be left off the sequences shown.

Chains of the proteins cited; added tags and fusions are not shown.
UniProt P38682: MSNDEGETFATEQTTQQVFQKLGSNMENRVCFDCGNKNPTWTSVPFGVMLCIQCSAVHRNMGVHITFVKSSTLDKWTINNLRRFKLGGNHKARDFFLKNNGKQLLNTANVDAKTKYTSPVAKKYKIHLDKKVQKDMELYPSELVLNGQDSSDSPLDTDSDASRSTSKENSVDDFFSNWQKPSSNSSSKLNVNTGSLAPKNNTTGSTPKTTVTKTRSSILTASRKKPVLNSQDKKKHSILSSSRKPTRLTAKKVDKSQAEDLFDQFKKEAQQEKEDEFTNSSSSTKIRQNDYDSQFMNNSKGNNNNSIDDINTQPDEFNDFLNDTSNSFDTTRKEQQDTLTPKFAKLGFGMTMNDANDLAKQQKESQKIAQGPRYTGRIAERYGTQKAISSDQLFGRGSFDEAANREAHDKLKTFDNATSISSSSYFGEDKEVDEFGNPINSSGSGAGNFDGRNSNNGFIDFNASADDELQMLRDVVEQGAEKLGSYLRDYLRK
UniProt Q01590: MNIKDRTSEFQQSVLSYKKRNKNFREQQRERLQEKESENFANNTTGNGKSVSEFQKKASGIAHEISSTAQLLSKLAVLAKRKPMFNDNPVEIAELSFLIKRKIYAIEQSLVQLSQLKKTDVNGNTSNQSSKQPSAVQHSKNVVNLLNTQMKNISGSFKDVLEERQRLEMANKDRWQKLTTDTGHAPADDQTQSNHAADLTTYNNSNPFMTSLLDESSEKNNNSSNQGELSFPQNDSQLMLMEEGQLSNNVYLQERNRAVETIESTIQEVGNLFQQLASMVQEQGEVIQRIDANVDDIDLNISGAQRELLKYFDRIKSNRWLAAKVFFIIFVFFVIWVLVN

T1: αCOP-FLAG (S. cerevisiae) (UniProt P53622)
T1 sequence: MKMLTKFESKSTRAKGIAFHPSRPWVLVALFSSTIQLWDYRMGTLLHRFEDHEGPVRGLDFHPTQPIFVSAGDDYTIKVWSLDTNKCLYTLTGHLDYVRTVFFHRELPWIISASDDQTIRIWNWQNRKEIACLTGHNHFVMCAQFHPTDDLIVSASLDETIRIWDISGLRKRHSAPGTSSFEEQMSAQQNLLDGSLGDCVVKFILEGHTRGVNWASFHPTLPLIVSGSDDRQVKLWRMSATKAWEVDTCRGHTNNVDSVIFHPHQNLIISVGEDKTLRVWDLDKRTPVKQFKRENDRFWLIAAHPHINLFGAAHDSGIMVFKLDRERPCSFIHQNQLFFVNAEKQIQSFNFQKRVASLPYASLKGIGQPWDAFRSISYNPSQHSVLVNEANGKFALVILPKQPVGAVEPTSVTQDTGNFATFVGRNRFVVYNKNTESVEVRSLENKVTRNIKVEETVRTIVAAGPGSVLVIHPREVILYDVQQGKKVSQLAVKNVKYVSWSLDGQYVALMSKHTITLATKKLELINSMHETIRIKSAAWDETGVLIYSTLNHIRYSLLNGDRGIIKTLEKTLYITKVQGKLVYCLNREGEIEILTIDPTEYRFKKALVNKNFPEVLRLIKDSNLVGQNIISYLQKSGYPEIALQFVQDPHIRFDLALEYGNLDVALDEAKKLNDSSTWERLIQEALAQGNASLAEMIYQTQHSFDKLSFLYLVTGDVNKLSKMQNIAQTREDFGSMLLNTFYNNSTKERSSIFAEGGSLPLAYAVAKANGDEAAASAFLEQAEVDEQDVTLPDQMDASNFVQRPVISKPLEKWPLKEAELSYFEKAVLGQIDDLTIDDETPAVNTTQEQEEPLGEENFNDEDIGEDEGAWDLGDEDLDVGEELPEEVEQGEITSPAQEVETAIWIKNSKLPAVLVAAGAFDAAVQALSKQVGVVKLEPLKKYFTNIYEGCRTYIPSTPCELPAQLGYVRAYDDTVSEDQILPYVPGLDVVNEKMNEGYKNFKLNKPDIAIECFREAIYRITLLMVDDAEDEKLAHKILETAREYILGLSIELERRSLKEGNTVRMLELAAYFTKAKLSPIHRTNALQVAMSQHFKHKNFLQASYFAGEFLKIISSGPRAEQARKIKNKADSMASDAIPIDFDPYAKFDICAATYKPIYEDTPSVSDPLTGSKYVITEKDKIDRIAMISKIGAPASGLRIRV

T2: Gos1-FLAG (S. cerevisiae) (UniProt P38736)
T2 sequence: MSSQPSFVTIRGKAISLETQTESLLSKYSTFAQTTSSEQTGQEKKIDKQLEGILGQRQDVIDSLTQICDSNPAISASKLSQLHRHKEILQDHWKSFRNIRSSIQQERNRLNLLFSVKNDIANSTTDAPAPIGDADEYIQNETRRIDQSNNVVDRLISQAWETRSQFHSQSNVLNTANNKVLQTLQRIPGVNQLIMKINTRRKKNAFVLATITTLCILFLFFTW

T3: Gos1-FLAG (S. cerevisiae), P38736
T3 chain: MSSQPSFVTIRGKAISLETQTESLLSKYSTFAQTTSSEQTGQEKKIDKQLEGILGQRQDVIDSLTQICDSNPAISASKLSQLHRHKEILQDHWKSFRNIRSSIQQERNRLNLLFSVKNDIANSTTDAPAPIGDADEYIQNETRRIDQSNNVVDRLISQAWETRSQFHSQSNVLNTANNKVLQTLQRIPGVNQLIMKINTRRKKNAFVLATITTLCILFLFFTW


Assays:
[1] = biological target: T1, αCOP-FLAG (S. cerevisiae); experiment: affinity purification with mass spectrometry; SILAC; αCOP-FLAG cells against untagged cells; anti-FLAG resin, ubiquitin-preserved conditions
[2] = biological target: T2, Gos1-FLAG (S. cerevisiae); experiment: affinity purification with mass spectrometry; SILAC; Gos1-FLAG cells against untagged cells; anti-FLAG M2 resin, lysis with 0.2% NP-40 and DUB inhibitors (ubiquitination preserved)
[3] = biological target: T2, Gos1-FLAG (S. cerevisiae); experiment: as above; remark: listed apart in the source
[4] = biological target: T3, Gos1-FLAG (S. cerevisiae), P38736; experiment: as above; conditions: remark: other sources report otherwise

binding [3] | Molecule | further results
– | ArfGAP Glo3 (from UniProt P38682 1-493) | binding [1]: binds
– | Sed5 (from UniProt Q01590 1-340) | binding [2]: binds
binds | Sec17 (protein, UniProt P32602 1-292) MSDPVELLKRAEKKGVPSSGFMKLFSGSDSYKFEEAADLCVQAATIYRLRKELNLAGDSFLKAADYQKKAGNEDEAGNTYVEAYKCFKSGGNSVNAVDSLENAIQIFTHRGQFRRGANFKFELGEILENDLHDYAKAIDCYELAGEWYAQDQSVALSNKCFIKCADLKALDGQYIEASDIYSKLIKSSMGNRLSQWSLKDYFLKKGLCQLAATDAVAAARTLQEGQSEDPNFADSRESNFLKSLIDAVNEGDSEQLSEHCKEFDNFMRLDKWKITILNKIKESIQQQEDDLL | –
binds | Sly1 (protein, UniProt P22213 1-666) MAVEEIASRKDISLRDMQISAILKMLFLNKDLNNNDNITTITDDIFNQQEIIWKVLILDIKSTATISSVLRVNDLLKAGITVHSLIKQDRSPLPDVPAIYFVSPTKENIDIIVNDLKSDKYSEFYINFTSSLPRNLLEDLAQQVSITGKSDKIKQVYDQYLDFIVTEPELFSLEISNAYLTLNDPKTTEEEITGLCANIADGLFNTVLTINSIPIIRAAKGGPAEIIAEKLGTKLRDFVINTNSSSTSTLQGNDSLERGVLIILDRNIDFASMFSHSWIYQCMVFDIFKLSRNTVTIPLESKENGTDNTTAKPLATKKYDIEPNDFFWMENSHLPFPEAAENVEAALNTYKEEAAEITRKTGVTNISDLDPNSNNDTVQIQEVVKKLPELTAKKNTIDTHMNIFAALLSQLESKSLDTFFEVEQDPGSTKTRSRFLDILKDGKTNNLEDKLRSFIVLYLTSTTGLPKDFVQNVENYFKENDYDINALKYVYKLREFMQLSNMSLQNKSLEDGSDSAFKPSNLTLSGIYGLTEGKLQGGVGSLISGIKKLLPEKKTIPITNVVDAIMDPLNSSQKNLETTDSYLYIDPKITRGSHTRKPKRQSYNKSLVFVVGGGNYLEYQNLQEWAHSQLHNPKKVMYGSTAITTPAEFLNEISRLGASNSSNNDA | –
binds | Sft1 (protein, UniProt P43682 1-97) MSNSRYSQTESNNDRKLEGLANKLATFRNINQEIGDRAVSDSSVINQMTDSLGSMFTDIKNSSSRLTRSLKAGNSIWRMVGLALLIFFILYTLFKLF | –
– | Ykt6, P36015 1-200 (protein) MRIYYIGVFRSGGEKALELSEVKDLSQFGFFERSSVGQFMTFFAETVASRTGAGQRQSIEEGNYIGHVYARSEGICGVLITDKEYPVRPAYTLLNKILDEYLVAHPKEEWADVTETNDALKMKQLDTYISKYQDPSQADAIMKVQQELDETKIVLHKTIENVLQRGEKLDNLVDKSESLTASSKMFYKQAKKSNSCCIIM | binding [4]: binds
